± gives the standard deviation of the averaged measurements. The effect of the compound repeats well; differences between the knockouts mostly do not.
System: BT-20
Assay: relative cell number vs DMSO control (72 h) (% of DMSO); higher = less growth inhibition (more cells)
Protocol: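 QMAP-Seq: a pool of 5 breast cancer cell lines (ZR-75-1, SKBR3, HCC-38, MDA-MB-231, BT-20), each carrying 12 doxycycline-inducible Cas9 sgRNA perturbations (11 knockouts plus non-targeting sgNT), was treated with compounds for 72 h at four 10-fold doses (10 nM-10 uM or 1 nM-1 uM range). Barcodes were amplified and sequenced, and cell number was interpolated from 293T spike-in standard curves. The result is expressed as % of the median of DMSO wells. Two biological replicates.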

COc1cc2c(Oc3ccc4[nH]c(C)cc4c3F)ncnc2cc1OCCCN1CCCC1 [Cediranib]
Conditions | relative cell number
sgRNA knockout: sgATF3, 10 nM | 95.3 ± 12
sgRNA knockout: sgATF3, 100 nM | 104 ± 6.7
sgRNA knockout: sgATF3, 1000 nM | 101 ± 28
sgRNA knockout: sgATF3, 10000 nM | 28.7 ± 2.6
sgRNA knockout: sgATF4, 10 nM | 111 ± 8.4
sgRNA knockout: sgATF4, 100 nM | 103 ± 2.5
sgRNA knockout: sgATF4, 1000 nM | 104 ± 18
sgRNA knockout: sgATF4, 10000 nM | 25.5 ± 3.8
sgRNA knockout: sgATF6, 10 nM | 114 ± 15
sgRNA knockout: sgATF6, 100 nM | 111 ± 1.3
sgRNA knockout: sgATF6, 1000 nM | 91.3 ± 21
sgRNA knockout: sgATF6, 10000 nM | 20.8 ± 1
sgRNA knockout: sgATG7, 10 nM | 103 ± 18
sgRNA knockout: sgATG7, 100 nM | 105 ± 1.1
sgRNA knockout: sgATG7, 1000 nM | 103 ± 16
sgRNA knockout: sgATG7, 10000 nM | 26.8 ± 3.4
sgRNA knockout: sgERN1, 10 nM | 104 ± 2
sgRNA knockout: sgERN1, 100 nM | 91.4 ± 22
sgRNA knockout: sgERN1, 1000 nM | 99.9 ± 28
sgRNA knockout: sgERN1, 10000 nM | 22.2 ± 0.66
sgRNA knockout: sgHSF1, 10 nM | 93 ± 13
sgRNA knockout: sgHSF1, 100 nM | 93.3 ± 2.4
sgRNA knockout: sgHSF1, 1000 nM | 99.6 ± 2.1
sgRNA knockout: sgHSF1, 10000 nM | 24.5 ± 4.6
sgRNA knockout: sgHSF2, 10 nM | 115 ± 22
sgRNA knockout: sgHSF2, 100 nM | 117 ± 18
sgRNA knockout: sgHSF2, 1000 nM | 109 ± 6.7
sgRNA knockout: sgHSF2, 10000 nM | 28.2 ± 0.85
sgRNA knockout: sgKEAP1, 10 nM | 101 ± 6.1
sgRNA knockout: sgKEAP1, 100 nM | 89.8 ± 17
sgRNA knockout: sgKEAP1, 1000 nM | 97.2 ± 26
sgRNA knockout: sgKEAP1, 10000 nM | 28.4 ± 3.2
sgRNA knockout: sgNFE2L2, 10 nM | 135 ± 12
sgRNA knockout: sgNFE2L2, 100 nM | 117 ± 7.7
sgRNA knockout: sgNFE2L2, 1000 nM | 112 ± 9.8
sgRNA knockout: sgNFE2L2, 10000 nM | 25.3 ± 3.6
sgRNA knockout: sgSLC35F2, 10 nM | 114 ± 2
sgRNA knockout: sgSLC35F2, 100 nM | 106 ± 20
sgRNA knockout: sgSLC35F2, 1000 nM | 98.7 ± 11
sgRNA knockout: sgSLC35F2, 10000 nM | 30.2 ± 7
sgRNA knockout: sgXBP1, 10 nM | 121 ± 6.2
sgRNA knockout: sgXBP1, 100 nM | 118 ± 13
sgRNA knockout: sgXBP1, 1000 nM | 94.2 ± 4.7
sgRNA knockout: sgXBP1, 10000 nM | 30.8 ± 0.66

Nc1ncn([C@H]2C[C@H](O)[C@@H](CO)O2)c(=O)n1 [Decitabine]
Conditions | relative cell number
sgRNA knockout: sgATF3, 10 nM | 92.6 ± 40
sgRNA knockout: sgATF3, 100 nM | 96.4 ± 13
sgRNA knockout: sgATF3, 1000 nM | 73.14 ± 0.37
sgRNA knockout: sgATF3, 10000 nM | 41.2 ± 0.48
sgRNA knockout: sgATF4, 10 nM | 98.3 ± 21
sgRNA knockout: sgATF4, 100 nM | 87 ± 21
sgRNA knockout: sgATF4, 1000 nM | 75.9 ± 9.6
sgRNA knockout: sgATF4, 10000 nM | 47.1 ± 4.4
sgRNA knockout: sgATF6, 10 nM | 96 ± 17
sgRNA knockout: sgATF6, 100 nM | 86.4 ± 21
sgRNA knockout: sgATF6, 1000 nM | 82.2 ± 11
sgRNA knockout: sgATF6, 10000 nM | 44.7 ± 2.1
sgRNA knockout: sgATG7, 10 nM | 96.8 ± 6.7
sgRNA knockout: sgATG7, 100 nM | 91.6 ± 7.7
sgRNA knockout: sgATG7, 1000 nM | 81.7 ± 3.2
sgRNA knockout: sgATG7, 10000 nM | 54.4 ± 6.3
sgRNA knockout: sgERN1, 10 nM | 110 ± 25
sgRNA knockout: sgERN1, 100 nM | 87.4 ± 11
sgRNA knockout: sgERN1, 1000 nM | 76.9 ± 3.4
sgRNA knockout: sgERN1, 10000 nM | 53.9 ± 18
sgRNA knockout: sgHSF1, 10 nM | 115 ± 35
sgRNA knockout: sgHSF1, 100 nM | 98.4 ± 11
sgRNA knockout: sgHSF1, 1000 nM | 73 ± 8.8
sgRNA knockout: sgHSF1, 10000 nM | 51.1 ± 5.8
sgRNA knockout: sgHSF2, 10 nM | 96 ± 23
sgRNA knockout: sgHSF2, 100 nM | 80.6 ± 2.2
sgRNA knockout: sgHSF2, 1000 nM | 65.2 ± 1.5
sgRNA knockout: sgHSF2, 10000 nM | 46.8 ± 5.3
sgRNA knockout: sgKEAP1, 10 nM | 113 ± 17
sgRNA knockout: sgKEAP1, 100 nM | 87.2 ± 21
sgRNA knockout: sgKEAP1, 1000 nM | 73.7 ± 5.6
sgRNA knockout: sgKEAP1, 10000 nM | 48.2 ± 3.9
sgRNA knockout: sgNFE2L2, 10 nM | 108 ± 6.8
sgRNA knockout: sgNFE2L2, 100 nM | 93.2 ± 22
sgRNA knockout: sgNFE2L2, 1000 nM | 72.3 ± 4.7
sgRNA knockout: sgNFE2L2, 10000 nM | 48.7 ± 1.4
sgRNA knockout: sgSLC35F2, 10 nM | 93 ± 8.3
sgRNA knockout: sgSLC35F2, 100 nM | 84 ± 2.8
sgRNA knockout: sgSLC35F2, 1000 nM | 86.4 ± 7.3
sgRNA knockout: sgSLC35F2, 10000 nM | 45.9 ± 4.9
sgRNA knockout: sgXBP1, 10 nM | 108 ± 30
sgRNA knockout: sgXBP1, 100 nM | 96.9 ± 9.8
sgRNA knockout: sgXBP1, 1000 nM | 66.8 ± 2.6
sgRNA knockout: sgXBP1, 10000 nM | 46.5 ± 0.55

Reference: the supplement of paper PMC7661543
